This note sets out measurements from paper PMC13199644, “Optimized Quantitative Bacterial Two-Hybrid (qB2H) for Protein–Protein Interaction Assessment” (Computational and Structural Biotechnology Journal, 2026).

The chains behind the UniProt entries cited, without tags or fusion partners. Residues count along the entry.
UniProt Q9NVP2, residues 1-156: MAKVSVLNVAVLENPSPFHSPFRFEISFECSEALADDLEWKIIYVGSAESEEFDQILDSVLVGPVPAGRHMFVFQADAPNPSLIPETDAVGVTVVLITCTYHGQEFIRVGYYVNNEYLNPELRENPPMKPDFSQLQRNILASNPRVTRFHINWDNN

These are yes or no findings as the source states them, for the method shown. Some results given as binding are weak or reduced against the parent protein; the word gives no strength. Sequences can lack the tags named with a protein.

In the first experiment the target is cI_E34P fusion with the N-terminal domain of human ASF1B, ASF1BN (residues 1 to 156) (human) (UniProt Q9NVP2). The experiment can be described thus: two-hybrid; qB2H v4 library of 1,134 N-terminal extension-linker-ip4_mutG peptides in SB39; turbidostat selection 24 and 32 h with kanamycin 209 μg/ml; NGS enrichment.
For AAEEAARFAALLAALPGSKWARLARRTAGAGGVTLNGAG (designed binder), the binding entry is “binds”.
As to AAEEQAAFDALLAALPGSKWARLARRTAGAGGVTLNGAG (designed binder), the binding result was “binds”.
Same read-out and setting: as for AEEEAARFAALLAALPGSKWARLARRTAGAGGVTLNGAG (designed binder), the entry is “binds”.

The next experiment has the same target. Description: two-hybrid; qB2H v4 library of 1,134 N-terminal extension-linker-ip4_mutG peptides in SB39; short batch selection (4.5 to 5 h) with kanamycin up to 348 μg/ml; NGS enrichment.
For AAAERARFAALLAKLPGSKWARLARRTAGAGGVTLNGAG (designed binder), the binding result is “binds”.
Turning to SAAARWAAALAALPGSKWARLARRTAGAGGVTLNGAG (designed binder), the binding result is “binds”.
Regarding SAAERFAAALAALPGSKWARLARRTAGAGGVTLNGAG (designed binder), the binding entry was “binds”.
